The results in this text go back to the supplement of paper PMC11732987, “Enantioselective OTUD7B fragment discovery through chemoproteomics screening and high-throughput optimisation” (Communications Chemistry, 2025).

Chains of the proteins cited; added tags and fusions are not shown. Lines headed by an entry give the natural chain unless they say otherwise; changes in a name come on top.
UniProt P32856: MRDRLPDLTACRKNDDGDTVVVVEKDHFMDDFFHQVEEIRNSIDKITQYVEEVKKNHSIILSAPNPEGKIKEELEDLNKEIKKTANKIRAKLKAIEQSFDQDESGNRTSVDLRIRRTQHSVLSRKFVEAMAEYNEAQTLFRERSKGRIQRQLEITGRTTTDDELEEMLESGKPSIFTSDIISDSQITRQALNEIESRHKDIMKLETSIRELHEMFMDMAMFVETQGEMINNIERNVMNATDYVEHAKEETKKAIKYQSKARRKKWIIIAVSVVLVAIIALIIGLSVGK

The structures appear in SMILES notation. Some of the results follow. The data scatter; read single values as rough.

The first test addresses STX2 C11 (UniProt P32856). Briefly: log2 mean competition ratio of IA-DTB cysteine labelling (DMSO/compound) (log2 ratio); higher = stronger cysteine engagement by compound. As to conditions: 50 µM; treatment time: 4 h; cell line lysate: HEK293T. How it is done: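 IA-DTB competitive cysteine chemoproteomics in HEK293T RIPA lysate. Lysates were treated with compound 29 or 30 at 50 or 200 µM for 4 h, then IA-DTB (500 µM, 1 h), trypsin-digested, NeutrAvidin-enriched and analysed by diaPASEF. Competition ratio = intensity DMSO / intensity compound (n=4 treated, n=64 DMSO); binding: mean log2 CR ≥ 1 and p ≤ 0.05 plus QC filters. Target is the cysteine site.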
`O=C(CCl)N[C@H]1CCCc2ccccc21`: the “log2 mean competition ratio” value is -0.365.

Regarding `O=C(CCl)N[C@@H]1CCCc2ccccc21`, the “log2 mean competition ratio” value was -0.0949.

The same test, now with this note: 200 µM; treatment time: 4 h; cell line lysate: HEK293T.
For `O=C(CCl)N[C@H]1CCCc2ccccc21`, the “log2 mean competition ratio” value was 0.277.

In the case of `O=C(CCl)N[C@@H]1CCCc2ccccc21`, the “log2 mean competition ratio” value is 0.468.
